Reference: patent publication EP4268823A1, “COMPOUND FOR TREATING NEUROINFLAMMATION” (Universitätsklinikum Hamburg-Eppendorf, priority 2022, dated 2023)
At least one structure is not confirmed: it was looked up by name or label, or the drawing left a doubt.

Molecular target: T1, G9a (Mus musculus, UniProt Q9Z148)
T1 construct: UNC0642 pre-treated primary neuronal cultures compared to respective controls; endogenous in cells; host or cells: primary mouse cortical neuronal cultures (C57BL/6J embryos)
T1 sequence (Q9Z148 1-1263): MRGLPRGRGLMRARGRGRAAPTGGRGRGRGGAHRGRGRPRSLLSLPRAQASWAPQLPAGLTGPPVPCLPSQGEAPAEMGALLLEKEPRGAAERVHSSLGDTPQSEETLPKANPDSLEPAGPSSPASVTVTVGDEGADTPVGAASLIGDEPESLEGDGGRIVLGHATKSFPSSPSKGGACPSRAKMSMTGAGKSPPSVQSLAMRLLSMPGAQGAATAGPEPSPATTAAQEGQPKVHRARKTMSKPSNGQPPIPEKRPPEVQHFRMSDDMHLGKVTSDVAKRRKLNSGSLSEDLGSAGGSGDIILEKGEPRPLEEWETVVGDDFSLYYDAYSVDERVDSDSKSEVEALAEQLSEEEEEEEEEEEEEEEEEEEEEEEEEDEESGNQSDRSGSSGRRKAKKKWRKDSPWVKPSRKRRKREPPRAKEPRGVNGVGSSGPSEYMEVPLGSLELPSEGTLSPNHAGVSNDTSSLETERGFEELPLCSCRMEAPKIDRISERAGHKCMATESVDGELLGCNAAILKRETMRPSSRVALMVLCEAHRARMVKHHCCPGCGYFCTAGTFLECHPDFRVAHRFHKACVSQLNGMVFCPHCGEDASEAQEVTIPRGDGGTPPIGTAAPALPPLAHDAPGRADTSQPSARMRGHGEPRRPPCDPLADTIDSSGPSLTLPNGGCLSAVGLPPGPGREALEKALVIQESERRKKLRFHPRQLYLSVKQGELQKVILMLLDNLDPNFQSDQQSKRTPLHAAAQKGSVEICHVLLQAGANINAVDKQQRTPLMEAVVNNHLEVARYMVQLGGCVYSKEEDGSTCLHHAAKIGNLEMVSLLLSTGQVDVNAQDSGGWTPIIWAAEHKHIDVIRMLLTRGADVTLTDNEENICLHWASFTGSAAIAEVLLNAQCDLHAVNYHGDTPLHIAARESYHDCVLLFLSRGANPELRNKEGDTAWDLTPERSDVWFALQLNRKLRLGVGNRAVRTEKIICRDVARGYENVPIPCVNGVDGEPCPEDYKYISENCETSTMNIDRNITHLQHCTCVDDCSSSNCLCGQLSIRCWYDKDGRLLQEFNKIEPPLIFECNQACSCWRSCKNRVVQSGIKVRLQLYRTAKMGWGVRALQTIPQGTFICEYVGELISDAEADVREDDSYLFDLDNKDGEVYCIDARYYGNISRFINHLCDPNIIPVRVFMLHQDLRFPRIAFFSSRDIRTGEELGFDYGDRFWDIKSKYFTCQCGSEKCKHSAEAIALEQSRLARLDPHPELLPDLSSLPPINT
Experiment: H3K9me2 / G9a immunofluorescence staining in primary neuronal cultures
Type: cell-based
Conditions: primary cortical neurons, inducer alone vs. control
Description: For primary cortical cultures pregnant C57BL/6J, or G9afl/fl;Snap25-Cre mice were euthanized. To ensure comparability between genotypes, only embryos from heterozygous breeding's were used. Brainstem tissue of each embryo for genotyping was reserved and cortices were isolated, dissociated and cells were plated at a density of 1 × 10^5 cells per 1 cm^2 on poly-D-lysine-coated wells (5 µM Sigma-Aldrich, cat. no. A-003-M). If not stated otherwise, cells were maintained in neurobasal plus medium (supplemented with B27 plus, penicillin, streptomycin and L-glutamine; Gibco, cat. no. A3582901) at 37°C, 5% CO^2 and a relative humidity of 98%, and treated with 1 µM cytarabine (Sigma-Aldrich, cat. no. BP383) at 1 day in vitro (div) to inhibit glial cell proliferation. If no cytarabine was applied cells were maintained in PNBM medium (supplemented with neural cell survival factor, gentamycin and L-glutamine; Lonza). Throughout, cultures after 14-23 div were used for experiments. G9a inhibitor UNC0642 was used in a concentration of 1 µM and cultures were pre-treated 24 hours before further experimental procedures.
Immunocytochemistry was performed as described previously (15). […] Immunostainings were analyzed with a Zeiss LSM 700 confocal microscope.

In the case of CCOc1ccccc1-n1c(C(C)N2CCN(C(=O)COc3ccc(Cl)cc3)CC2)nc2ccccc2c1=O (stereo not shown) [erastin], the “H3K9me2 immunofluorescence after cell death induction” value is reported as “significant upregulation of H3K9me2”.
